Results are given in words; binding and its absence hold for the method and conditions named. Some entries that bind do so weakly or less than the wild type. Tags and fused reporters may be left off the sequences shown.
T1: TR2 (NR2C1), two-hybrid fusion (UniProt Q505F1)
T1 sequence: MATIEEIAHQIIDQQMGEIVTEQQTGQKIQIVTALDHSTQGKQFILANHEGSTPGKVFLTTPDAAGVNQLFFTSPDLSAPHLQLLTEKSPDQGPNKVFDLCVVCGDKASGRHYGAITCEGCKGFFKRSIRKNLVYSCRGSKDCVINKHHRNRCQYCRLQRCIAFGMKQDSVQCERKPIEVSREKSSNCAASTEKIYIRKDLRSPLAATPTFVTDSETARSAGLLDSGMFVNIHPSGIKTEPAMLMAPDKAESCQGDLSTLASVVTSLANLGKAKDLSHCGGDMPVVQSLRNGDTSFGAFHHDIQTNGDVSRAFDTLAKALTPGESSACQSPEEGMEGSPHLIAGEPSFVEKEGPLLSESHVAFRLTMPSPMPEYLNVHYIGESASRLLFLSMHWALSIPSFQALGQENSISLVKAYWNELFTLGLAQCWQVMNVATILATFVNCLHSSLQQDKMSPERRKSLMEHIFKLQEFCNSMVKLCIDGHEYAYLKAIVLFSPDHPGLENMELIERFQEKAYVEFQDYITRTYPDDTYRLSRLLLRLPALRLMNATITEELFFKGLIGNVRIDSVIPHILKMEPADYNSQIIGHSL

Amino acid sequences for entries named in this document (tags omitted). Residues count along the entry.
UniProt P13864, 2-757: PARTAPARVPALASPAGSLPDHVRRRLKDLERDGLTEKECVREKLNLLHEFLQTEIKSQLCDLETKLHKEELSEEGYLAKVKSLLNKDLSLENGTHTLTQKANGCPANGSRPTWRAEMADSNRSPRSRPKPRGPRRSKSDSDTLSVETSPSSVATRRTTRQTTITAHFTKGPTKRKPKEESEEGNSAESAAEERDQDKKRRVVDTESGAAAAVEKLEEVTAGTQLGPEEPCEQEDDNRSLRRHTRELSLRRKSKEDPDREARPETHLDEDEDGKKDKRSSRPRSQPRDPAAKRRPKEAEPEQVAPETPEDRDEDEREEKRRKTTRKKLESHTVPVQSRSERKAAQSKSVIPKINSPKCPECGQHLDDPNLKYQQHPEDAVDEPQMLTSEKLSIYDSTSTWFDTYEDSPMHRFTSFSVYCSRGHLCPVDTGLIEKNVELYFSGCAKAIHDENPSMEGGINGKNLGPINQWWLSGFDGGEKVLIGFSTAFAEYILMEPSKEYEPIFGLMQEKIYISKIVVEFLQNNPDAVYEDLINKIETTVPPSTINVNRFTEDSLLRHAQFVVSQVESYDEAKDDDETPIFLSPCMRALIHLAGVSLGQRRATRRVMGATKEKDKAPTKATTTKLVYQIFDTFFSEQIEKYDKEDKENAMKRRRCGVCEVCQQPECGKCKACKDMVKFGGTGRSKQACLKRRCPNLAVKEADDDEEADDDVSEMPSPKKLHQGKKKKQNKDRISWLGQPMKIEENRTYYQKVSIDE
UniProt Q6PDQ2, 667-1295: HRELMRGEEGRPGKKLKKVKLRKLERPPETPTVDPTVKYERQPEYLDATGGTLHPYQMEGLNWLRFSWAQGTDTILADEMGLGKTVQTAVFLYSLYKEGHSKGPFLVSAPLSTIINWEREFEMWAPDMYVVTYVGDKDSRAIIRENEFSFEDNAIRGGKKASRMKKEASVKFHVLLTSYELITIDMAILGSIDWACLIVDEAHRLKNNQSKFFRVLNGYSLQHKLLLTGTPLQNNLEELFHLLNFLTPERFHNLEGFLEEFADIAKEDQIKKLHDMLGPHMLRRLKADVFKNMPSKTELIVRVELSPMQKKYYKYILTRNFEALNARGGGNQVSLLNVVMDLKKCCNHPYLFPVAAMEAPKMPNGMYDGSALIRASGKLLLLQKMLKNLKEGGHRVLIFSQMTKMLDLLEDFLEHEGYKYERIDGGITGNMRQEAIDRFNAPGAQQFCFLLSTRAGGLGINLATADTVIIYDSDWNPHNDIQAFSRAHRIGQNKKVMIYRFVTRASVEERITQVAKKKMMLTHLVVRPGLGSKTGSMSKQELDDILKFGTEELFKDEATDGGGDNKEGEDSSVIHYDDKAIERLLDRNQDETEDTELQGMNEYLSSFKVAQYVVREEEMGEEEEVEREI

T2: NCoR1 carboxy-terminal (C) domain (NCoR1-C) (mouse) (UniProt Q60974)
T2 sequence: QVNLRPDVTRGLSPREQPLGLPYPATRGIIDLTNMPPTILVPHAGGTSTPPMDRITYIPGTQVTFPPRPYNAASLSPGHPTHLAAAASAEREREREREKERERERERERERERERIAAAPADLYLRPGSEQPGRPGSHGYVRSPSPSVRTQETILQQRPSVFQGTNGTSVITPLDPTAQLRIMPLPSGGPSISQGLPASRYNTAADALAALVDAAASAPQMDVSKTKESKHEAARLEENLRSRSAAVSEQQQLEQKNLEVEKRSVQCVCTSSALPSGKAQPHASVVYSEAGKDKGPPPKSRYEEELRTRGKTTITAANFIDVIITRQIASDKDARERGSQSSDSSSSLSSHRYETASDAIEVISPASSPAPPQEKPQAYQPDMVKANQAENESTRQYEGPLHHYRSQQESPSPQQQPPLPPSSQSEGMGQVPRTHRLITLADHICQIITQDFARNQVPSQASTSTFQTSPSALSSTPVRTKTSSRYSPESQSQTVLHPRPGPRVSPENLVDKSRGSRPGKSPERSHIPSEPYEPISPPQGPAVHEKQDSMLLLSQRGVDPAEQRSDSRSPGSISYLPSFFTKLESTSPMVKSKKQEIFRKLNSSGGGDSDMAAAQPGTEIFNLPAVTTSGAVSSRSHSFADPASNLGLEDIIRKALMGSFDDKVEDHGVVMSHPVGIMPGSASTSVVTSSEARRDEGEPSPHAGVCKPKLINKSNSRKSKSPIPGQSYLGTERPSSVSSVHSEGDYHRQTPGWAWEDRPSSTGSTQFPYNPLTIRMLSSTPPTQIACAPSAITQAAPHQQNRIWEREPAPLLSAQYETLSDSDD

T3: TR4 (NR2C2), two-hybrid fusion (UniProt P49117)
T3 sequence: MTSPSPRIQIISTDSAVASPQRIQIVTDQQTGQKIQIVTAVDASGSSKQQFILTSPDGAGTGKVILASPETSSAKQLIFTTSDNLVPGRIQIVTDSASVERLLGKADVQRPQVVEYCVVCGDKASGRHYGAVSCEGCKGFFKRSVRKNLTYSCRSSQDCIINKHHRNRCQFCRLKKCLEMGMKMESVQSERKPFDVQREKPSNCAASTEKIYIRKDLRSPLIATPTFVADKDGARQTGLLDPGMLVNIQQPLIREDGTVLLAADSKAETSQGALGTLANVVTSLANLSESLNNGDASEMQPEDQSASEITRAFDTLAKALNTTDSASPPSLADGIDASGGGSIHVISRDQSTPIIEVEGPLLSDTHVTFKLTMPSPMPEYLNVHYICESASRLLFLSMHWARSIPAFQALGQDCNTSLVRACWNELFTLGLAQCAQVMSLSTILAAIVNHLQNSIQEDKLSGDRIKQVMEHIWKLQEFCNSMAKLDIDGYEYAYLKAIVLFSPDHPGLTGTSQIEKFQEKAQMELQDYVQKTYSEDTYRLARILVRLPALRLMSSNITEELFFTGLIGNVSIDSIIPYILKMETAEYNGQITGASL


Experiments:
Experiment in all cases: two-hybrid
[1] = target: T1, TR2 (NR2C1), two-hybrid fusion
[2] = target: T2, NCoR1 carboxy-terminal (C) domain (NCoR1-C) (mouse)
[3] = target: T3, TR4 (NR2C2), two-hybrid fusion

Molecule	binding [1]	binding [2]	binding [3]
N-terminus of DNMT1, two-hybrid fusion (from UniProt P13864 2-757) (domain or fragment)	no binding	–	no binding
C-terminal domain of SMRT (silencing mediator of retinoic acid and thyroid hormone), two-hybrid fusion (domain or fragment, UniProt Q9WU42 2004-2468) SPDGVEPISPVSSPSLTHDKGLSKPLEELEKSHLEGELRHKQPGPMKLSAEAAHLPHLRPLPESQPSSSPLLQTAPGIKGHQRVVTLAQHISEVITQDYTRHHPQQLSGPLPAPLYSFPGASCPVLDLRRPPSDLYLPPPDHGTPARGSPHSEGGKRSPEPSKTSVLGSSEDAIEPVSPPEGMTEPGHARSTAYPLLYRDGEQGEPRMGSKSPGNTSQPPAFFSKLTESNSAMVKSKKQEINKKLNTHNRNEPEYNIGQPGTEIFNMPAITGAGLMTCRSQAVQEHASTNMGLEAIIRKALMGKYDQWEEPPPLGANAFNPLNASASLPAAAMPITTADGRSDHALTSPGGGGKAKVSGRPSSRKAKSPAPGLASGDRPPSVSSVHSEGDCNRRTPLTNRVWEDRPSSAGSTPFPYNPLIMRLQAGVMASPPPPGLAAGSGPLAGPHHAWDEEPKPLLCSQYETL	no binding	–	no binding
Sin3A, two-hybrid fusion (protein, UniProt Q60520 1-1274) MKRRLDDQESPVYAAQQRRIPGSTEAFSHQHRVLAPAPPVYEAVSETMQSATGIQYSVAPNYQVSAVPQSSGSHGPAIAAVHSSHHHPTAVQPHGGQVVQSHAHPAPPVAPVQGQQQFQRLKVEDALSYLDQVKLQFGSQPQVYNDFLDIMKEFKSQSIDTPGVISRVSQLFKGHPDLIMGFNTFLPPGYKIEVQTNDMVNVTTPGQVHQIPTHGIQPQPQPPPQHPSQPSSQSAPTPAQPAPQPTAAKVSKPSQLQAHTPASQQTPPLPPYASPRSPPVQPHTPVTISLGTAPSLQNNQPVEFNHAINYVNKIKNRFQGQPDIYKAFLEILHTYQKEQRNAKEAGGNYTPALTEQEVYAQVARLFKNQEDLLSEFGQFLPDANSSVLLSKTTAEKVDSVRNDHGGTVKKPQLNNKPQRPSQNGCQIRRHSGTGATPPVKKKPKLMSLKESSMADASKHGVGTESLFFDKVRKALRSAEAYENFLRCLVIFNQEVISRAELVQLVSPFLGKFPELFNWFKNFLGYKESVHLESFPKERATEGIAMEIDYASCKRLGSSYRALPKSYQQPKCTGRTPLCKEVLNDTWVSFPSWSEDSTFVSSKKTQYEEHIYRCEDERFELDVVLETNLATIRVLEAIQKKLSRLSAEEQAKFRLDNTLGGTSEVIHRKALQRIYADKAADIIDGLRKNPSIAVPIVLKRLKMKEEEWREAQRGFNKVWREQNEKYYLKSLDHQGINFKQNDTKVLRSKSLLNEIESIYDERQEQATEENAGVPVGPHLSLAYEDKQILEDAAALIIHHVKRQTGIQKEDKYKIKQIMHHFIPDLLFAQRGDLSDVEEEEEEEMDVDEATGAPKKHNGVGGSPPKSKLLFSNTAAQKLRGMDEVYNLFYVNNNWYIFMRLHQILCLRLLRICSQAERQIEEENREREWEREVLGIKRDKSDSPAIQLRLKEPMDVDVEDYYPAFLDMVRSLLDGNIDSSQYEDSLREMFTIHAYIAFTMDKLIQSIVRQLQHIVSDEVCVQVTDLYLAENNNGATGGQLNSQTSRSLLESAYQRKAEQLMSDENCFKLMFIQSQGQVQLTVELLDTEEENSDDPVEAERWSDYVERYMSSDTTSPELREHLAQKPVFLPRNLRRIRKCQRGREQQEKEGKEGNSKKTMENVESLDKLECRFKLNSYKMVYVIKSEDYMYRRTALLRAHQSHERVSKRLHQRFQAWVDKWTKEHVPREMAAETSKWLMGEGLEGLVPCTTTCDTETLHFVSINKYRVKYGTVFKAP	binds	binds	binds

The next lines start with the values.

binding [1]	binding [2]	binding [3]	Molecule
no binding	binds	no binding	CtBP1, two-hybrid fusion (from UniProt O88712 1-441)
no binding	binds	no binding	Mi2β amino acids 667-1295, two-hybrid fusion (from UniProt Q6PDQ2 667-1295) (domain or fragment)

Reference: publication doi:10.1101/346619
